Patent US11834696B2, “Antimicrobial susceptibility testing with large-volume light scattering imaging and deep learning video microscopy” (Arizona Board of Regents on behalf of Arizona State …, priority 2017, dated 2023)

Experiments:
[1] = test system: E. coli; assay: Deep learning video microscopy-based antimicrobial susceptibility testing (DLVM-AST); format: cell-based, Escherichia coli (ATCC 43888); conditions: time needed to determine MIC; triplicate
[2] = test system: E. coli; assay: AST without DL (division feature only, cell counting from the videos); format: cell-based, Escherichia coli (ATCC 43888); conditions: triplicate
Protocol: To further validate the DLVM-AST method, we counted the total number of bacteria cells (Ntotal) from the videos (as shown in FIG. 9), and plotted Ntotal (mean±std) vs. time for PMB at various concentrations (as shown in FIG. 11C).
Growth and preparation of E. coli. Frozen E. coli strains were thawed, and 50 μL of which were cultured in 5 mL of Luria-Bertani (LB) medium (Per liter: 10 g peptone 140, 5 g yeast extract, and 5 g sodium chloride) at 37° C. and 150 rpm for 16 hours. Saturated cultures in the volume of 20 μL were diluted into 5 mL of fresh LB medium, and growth continued at 37° C. with 150 rpm for 1 hour to attain a logarithmic phase of growth. Bacterial cells were collected by centrifugation at 450 g for 5 min and suspended in urine to a concentration of 2×10^7 cells/mL^36. This concentration was determined by measuring the extinction coefficients for E. coli from the Optical Density (OD600) reading taken with a spectrophototometer (NanoDrop™ 2000/2000c Spectrophotometers, Thermo Scientific). The calibration factor for bacterial cell cultures estimation was 8×10^8 cells/mL per OD600 unit. Before use, the bacteria-spiked urine samples were filtered using a 5 μm syringe filter (EMD Millipore) to remove large particles.
AST with video microscopy. The microfluidic chip was placed on an inverted microscope (Olympus IX-81) with a 40× phase contrast objective lens and imaged with a CCD camera (Pike-032B, Allied Vision Technologies, Newburyport, Mass.). A 200-μL bacterial suspension (2×10^7 cells/mL) was mixed with an equal volume of antibiotic solution for each antibiotic concentration or an equal volume of water as a control experiment. These mixed solutions were injected into different microfluidic channels simultaneously. […] Videos of the bacterial cells were recorded at 100 frames per second (fps) immediately (0 min) and after every 30 min. […] To include enough cells for reliable results, we integrated bacterial cells from three videos recorded from different experiments. […]

| Compound | assay time, DLVM-AST [1] | assay time, AST Without DL [2] |
| --- | --- | --- |
| CC1(C)S[C@@H]2[C@H](NC(=O)[C@H](N)c3ccccc3)C(=O)N2[C@H]1C(=O)O [Ampicillin, ampicillin] | 2.5 to 3 h | 4 h |
| C[C@H]1[C@H](NC(=O)/C(=N\OC(C)(C)C(=O)O)c2csc(N)n2)C(=O)N1S(=O)(=O)O [Aztreonam, aztreonam] | 1.5 h | 3 h |
| [H]/N=C(/N)N[C@H]1[C@H](O)[C@@H](O)[C@H](O[C@@H]2O[C@@H](C)[C@](O)(C=O)[C@H]2O[C@@H]2O[C@@H](CO)[C@H](O)[C@@H](O)[C@@H]2NC)[C@@H](N/C(N)=N\[H])[C@@H]1O [Streptomycin, streptomycin] | 3 h | 4/4 h |
